Experimental data published in PMC10570812.
Results are given in words; binding and its absence hold for the method and conditions named. Binding calls can cover weak binding; strength is not graded here.

Tests used:
[1] = biological target: T1, ZK002 β chain (Deinagkistrodon acutus) (UniProt Q8JIV8); test: SDS-PAGE under reducing and non-reducing conditions + MALDI-TOF MS; purified ZK002; about 30 kDa non-reduced, about 15 kDa reduced; MALDI-TOF peaks at 30 kDa, 15 kDa (α) and 16 kDa (β); both purified
T1 sequence: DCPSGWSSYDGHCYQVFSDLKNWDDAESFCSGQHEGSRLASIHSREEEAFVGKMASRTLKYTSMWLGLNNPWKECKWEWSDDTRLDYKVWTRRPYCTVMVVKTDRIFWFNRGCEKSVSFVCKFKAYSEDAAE

[2] = biological target: T1, ZK002 β chain (Deinagkistrodon acutus); test: crystal structure; both purified

## ZK002 α chain (Deinagkistrodon acutus)
[1]
  binding: binds
[2]
  binding: binds
